Test results published in article PMC3283642.
Results are given in words; binding and its absence hold for the method and conditions named. In cells and extracts the contact can be indirect. Tags and fused reporters may be left off the sequences shown.

Biological target: T1, MBP-Os01g (Os01g0286100 fused to maltose binding protein) (rice (Oryza sativa L. cv Nipponbare)) (UniProt Q0JNI9)
T1 sequence: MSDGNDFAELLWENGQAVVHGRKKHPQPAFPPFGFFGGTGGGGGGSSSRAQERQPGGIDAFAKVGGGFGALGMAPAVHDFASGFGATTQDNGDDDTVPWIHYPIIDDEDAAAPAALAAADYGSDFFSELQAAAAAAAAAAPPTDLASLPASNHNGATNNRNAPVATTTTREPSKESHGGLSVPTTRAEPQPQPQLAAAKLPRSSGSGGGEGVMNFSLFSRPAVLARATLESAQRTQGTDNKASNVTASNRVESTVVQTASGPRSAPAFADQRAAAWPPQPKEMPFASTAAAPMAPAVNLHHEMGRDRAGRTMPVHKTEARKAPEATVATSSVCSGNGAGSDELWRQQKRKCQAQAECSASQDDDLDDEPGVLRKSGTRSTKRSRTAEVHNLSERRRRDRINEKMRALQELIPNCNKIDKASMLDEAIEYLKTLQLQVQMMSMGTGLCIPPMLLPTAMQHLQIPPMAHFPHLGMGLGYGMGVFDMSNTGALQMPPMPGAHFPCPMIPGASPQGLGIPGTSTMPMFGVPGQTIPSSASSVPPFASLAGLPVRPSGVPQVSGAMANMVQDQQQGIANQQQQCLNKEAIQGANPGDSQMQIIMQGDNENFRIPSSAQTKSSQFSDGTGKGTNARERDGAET
Test: pull-down; amylose resin-bound MBP fusion incubated with an equal amount of GST fusion; binding buffer 20 mM Tris-HCl pH 7.5, 100 mM NaCl, 1 mM EDTA, 1 mM DTT, 0.2% 2-mercaptoethanol, protease inhibitor; 4°C, 2 hours; five washes with 300 mM NaCl, 0.05% Tween-20; immunoblot with anti-GST

- binding: no binding
B1: GST-PGL1 (POSITIVE REGULATOR OF GRAIN LENGTH 1 fused to glutathione S-transferase) (protein, UniProt Q0DUR2 1-92)
chain: MSSRRSRSRQSGSSRITDEQISDLVSKLQDLLPEARLRSNDRVPSSRVLQETCNYIRSLHQEVDDLSERLSELLATSDMSSAQAAIIRSLLM
